The record followed here is article PMC8844409.

No constants are given. Whether binding was seen depends on the method and setting. In cells and extracts the contact can be indirect. Binding calls can cover weak binding; strength is not graded here.

This experiment concerns the target GFP-Dsn1^Δ326-349 (chicken Dsn1 lacking the Ndc80C-binding region) (chicken). As to the kind of experiment: co-IP; GFP-Trap Magnetic agarose on clarified lysates of cKO-Dsn1 DT40 cells expressing GFP-Dsn1^WT or GFP-Dsn1^Δ326-349, tetracycline 36 h (WT cells also nocodazole for the last 10 h); lysis buffer 50 mM NaPi pH 8.0, 300 mM NaCl, 0.1% NP40; 4 °C, 1 h; immunoblot with anti-Dsn1, -Mis12, -Knl1, -Ndc80. Background: Immunoblotting shows a protein as a band on a membrane.

B1: Mis12 (chicken) (protein, UniProt Q1T769 1-210)
chain: MSVRPMAYETQFFGFTPQTCMLRIYLAFQDYLFEMMVVVESVILKKLEALPAVQISRFEIRKSTEKFLHFMKARFDQLFEKMEEVLLQLVLSIPDNVLLPEDRVHQQYPYSQEEFCALQDEISQLQQQCRAEAAAGQALRAELEEQRAVQAELEKVVQWFDGLENVCREHGTGNFKESLVFLTQNCKKLQDVLRDVEEKSKKIKKRQQLL
On to B1, for which the binding result is on record as “binds”.
